Experiment [1] addresses RAP-2 (RIP-associated protein-2), full-length (human) (UniProt Q9Y6K9). The experiment can be described thus: yeast two-hybrid test.
Experiment [2] has the same target. The experiment can be described thus: yeast two-hybrid screen of the B-cell cDNA library, full-length RAP-2 as bait.

Sequences of proteins named here, by UniProt entry; tags and fusion partners are left off. A change or cut given only in a name is not applied to a line headed by its entry.
UniProt Q9Y6K9: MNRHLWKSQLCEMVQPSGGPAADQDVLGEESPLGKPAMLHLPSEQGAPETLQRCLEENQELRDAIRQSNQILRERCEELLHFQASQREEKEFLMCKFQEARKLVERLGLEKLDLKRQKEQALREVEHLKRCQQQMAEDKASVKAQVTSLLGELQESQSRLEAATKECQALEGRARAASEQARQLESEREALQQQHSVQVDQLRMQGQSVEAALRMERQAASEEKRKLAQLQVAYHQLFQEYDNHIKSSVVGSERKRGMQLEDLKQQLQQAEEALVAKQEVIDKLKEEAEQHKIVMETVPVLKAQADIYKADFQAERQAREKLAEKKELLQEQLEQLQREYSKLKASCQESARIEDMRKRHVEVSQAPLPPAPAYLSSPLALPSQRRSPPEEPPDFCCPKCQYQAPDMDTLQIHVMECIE

These results are taken from patent US20040219615A1.

Results are given in words; binding and its absence hold for the method and conditions named. Some binding calls cover weakened binding; strength is not graded here.

B1: clone #84 (protein, UniProt Q99675 1-332, looked up)
chain: MAAVFLVTLYEYSPLFYIAVVFTCFIVTTGLVLGWFGWDVPVILRNSEETQFSTRVFKKQMRQVKNPFGLEITNPSSASITTGITLTTDCLEDSLLTCYWGCSVQKLYEALQKHVYCFRISTPQALEDALYSEYLYQEQYFIKKDSKEEIYCQLPRDTKIEDFGTVPRSRYPLVALLTLADEDDREIYDIISMVSVIHIPDRTYKLSCRILYQYLLLAQGQFHDLKQLFMSANNNFTPSNNSSSEEKNTDRSLLEKVGLSESEVEPSEENSKDCVVCQNGTVNWVLLPCRHTCLCDGCVKYFQQCPMCRQFVQESFALCSQKEQDKDKPKTL
On to B1, for which the binding result in experiment [1] and in experiment [2] was “binds” in each case.
